From patent publication US8772266B2, “Fungicide pyrazole carboxamides derivates” (Bayer Cropscience AG, priority 2009, dated 2014)
Some results were stated once for a whole list of compounds, not compound by compound.

Key:
Phakopsora pachyrhizi = assay: In vivo preventive test on Phakopsora pachyrhizi (soybean rust); settings: 50 ppm of active ingredient, evaluated 11 days after inoculation
Description: Solvent: 28.5 parts by weight of acetone
Emulsifier: 1.5 parts by weight of polyoxyethylene alkyl phenyl ether
One day after spraying, the plants are inoculated with an aqueous spore suspension of the causal agent of soybean rust (Phakopsora pachyrhizi).
The test is evaluated 11 days after the inoculation.

Puccinia recondita = assay: In vivo preventive test on Puccinia recondita (wheat); settings: 500 ppm of active ingredient, evaluated 7-9 days after inoculation
Pyrenophora teres = assay: In vivo preventive test on Pyrenophora teres (barley); settings: 500 ppm of active ingredient, evaluated 7-9 days after inoculation
Puccinia triticina = assay: In vivo curative test on Puccinia triticina (wheat); settings: 500 ppm of active ingredient, evaluated 8 days after inoculation
[1] = test system: Blumeria graminis f.sp. tritici; assay: In vivo curative test on Blumeria graminis (wheat); settings: 250 ppm of active ingredient, evaluated 7 days after inoculation
Venturia inaequalis = assay: In vivo preventive test on Venturia inaequalis (apple scab); settings: 10 ppm of active ingredient, evaluated 10 days after inoculation
Botrytis cinerea = assay: In vivo preventive test on Botrytis cinerea (beans); settings: 100 ppm of active ingredient, evaluated 2 days after inoculation
Alternaria solani = assay: In vivo preventive test on Alternaria solani (tomato); settings: 500 ppm of active ingredient, evaluated 7 days after inoculation
Leptosphaeria nodorum = assay: In vivo preventive test on Leptosphaeria nodorum (wheat); settings: 500 ppm of active ingredient, evaluated 7-9 days after inoculation
Sphaerotheca fuliginea [2] = assay: In vivo preventive test on Sphaerotheca fuliginea (cucumber), Example L; settings: 500 ppm of active ingredient, evaluated 7 days after inoculation
Sphaerotheca fuliginea [3] = assay: In vivo preventive test on Sphaerotheca fuliginea (cucumber), Example G; settings: 10 ppm of active ingredient, evaluated 7 days after inoculation
Excerpt: After the spray coating has dried on, the plants are inoculated with an aqueous spore suspension of Sphaerotheca fuliginea.

SMILES	disease control (Phakopsora pachyrhizi)	disease control (Puccinia recondita)	disease control (Pyrenophora teres)	disease control (Puccinia triticina)	disease control [1]	disease control (Venturia inaequalis)	disease control (Botrytis cinerea)	disease control (Alternaria solani)	disease control (Leptosphaeria nodorum)	disease control (Sphaerotheca fuliginea [2])	disease control (Sphaerotheca fuliginea [3])
Cn1nc(C(F)F)c(C(=O)N(Cc2ccccc2[Si](C)(C)C)C2CC2)c1Cl [Example 37]	at least 90%	at least 70%	at least 70%	at least 95%							
Cc1nn(C)c(F)c1C(=O)N(C1CC1)C1CCCc2cc(OC(C)C)ccc21 (stereo not drawn) [N-cyclopropyl-5-fluoro-N-(6-isopropoxy-1,2,3,4-tetrahydronaphthalen-1-yl)-1,3-dimethyl-1H-pyrazole-4-carboxamide, reference compound]	less than 50%			less than 70%	less than 70%						
Cn1nc(C(F)F)c(C(=O)N(Cc2c(C(F)(F)F)ccc(F)c2F)C2CC2)c1F [Example 68]		at least 70%	at least 70%		at least 80%	at least 70%	at least 90%	at least 70%	at least 70%	at least 70%	
CC(c1cccc2ccccc12)N(C(=O)c1c(C(F)F)nn(C)c1F)C1CC1 (stereo not drawn) [N-cyclopropyl-3-(difluoromethyl)-5-fluoro-1-methyl-N-[1-(1-naphthyl)ethyl]-1H-pyrazole-4-carboxamide, reference compound]	less than 50%				less than 70%						less than 85%
Cn1nc(C(F)F)c(C(=O)N(Cc2cc(Cl)ccc2[Si](C)(C)C)C2CC2)c1F [Example 24]	at least 90%	at least 70%	at least 70%	at least 95%		at least 70%	at least 90%	at least 70%	at least 70%	at least 70%	
Cn1nc(C(F)F)c(C(=O)N(Cc2ccccc2[Si](C)(C)C)C2CC2)c1F [Example 3, N-cyclopropyl-3-(difluoromethyl)-5-fluoro-1-methyl-N-[2-(trimethylsilyl)benzyl]-1H-pyrazole-4-carboxamide]	at least 90%	at least 70%	at least 70%	at least 95%	at least 80%	at least 70%	at least 90%	at least 70%	at least 70%	at least 70%	
CC(c1ccc(Cl)cc1Cl)N(C(=O)c1c(C(F)F)nn(C)c1F)C1CC1 (stereo not drawn) [Example 70]		at least 70%	at least 70%		at least 80%	at least 70%			at least 70%	at least 70%	
Cc1cc(C)c2c(c1)C(N(C(=O)c1c(C(F)F)nn(C)c1F)C1CC1)CCC2 (stereo not drawn) [Example 74]	at least 90%	at least 70%	at least 70%			at least 70%		at least 70%	at least 70%	at least 70%	
Cn1nc(C(F)F)c(C(=S)N(Cc2ccccc2[Si](C)(C)C)C2CC2)c1F [Example 38, N-cyclopropyl-3-(difluoromethyl)-5-fluoro-1-methyl-N-[2-(trimethylsilyl)benzyl]-1H-pyrazole-4-carbothioamide]	at least 90%	at least 70%	at least 70%	at least 95%	at least 80%	at least 70%	at least 90%	at least 70%	at least 70%	at least 70%	
CC(c1cccc2c1OC(F)(F)O2)N(C(=O)c1c(C(F)F)nn(C)c1F)C1CC1 (racemic) [Example 72]		at least 70%	at least 70%		at least 80%	at least 70%			at least 70%	at least 70%	
Cn1nc(C(F)F)c(C(=O)N(Cc2c(Br)ccc(F)c2F)C2CC2)c1F [Example 10]		at least 70%	at least 70%		at least 80%	at least 70%	at least 90%	at least 70%	at least 70%	at least 70%	
Cc1nn(C)c(F)c1C(=O)N(Cc1ncc(C(F)(F)F)cc1Cl)C1CC1 [N-{[3-chloro-5-(trifluoromethyl)pyridin-2-yl]methyl}-N-cyclopropyl-5-fluoro-1,3-dimethyl-1H-pyrazole-4-carboxamide, reference compound]				less than 70%		less than 30%	less than 30%				less than 85%
